Values from PubChem BioAssay AID1224830 (NIAID, 2016)
Shown is one part, drawn at random, of about 18,000 deposited reagents. About 2,900 of them (16%) count as active. 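Calls are made per well; low scores hint the gene aids the LPS response, high scores that it dampens it.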 Repeated entries: four replicate wells of each siRNA pool.

- Screen: 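Genes whose knock-down alters the TNF-alpha reporter response to LPS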 (primary screen)
- Cell system: human THP-1 monocytic leukaemia cells, TNF dual-luciferase reporter clone, PMA-differentiated to macrophage-like cells
- Knock-down reagent: siRNA pool against human genes, 50 nM
- Time to read-out: LPS for 4 h, given about 3 days after siRNA transfection
- Conditions: bacterial LPS (TLR4 ligand), 10 ng/ml
- Read-out: 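Ratio of firefly to renilla light, scaled to the plate median and expressed as a robust z-score per replicate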
- Direction: TNF reporter robust z-score: higher = stronger TNF reporter response to LPS
- Call rule: 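Each well counts as active if its z-score is over 2.8 or under -1.5; controls are left without a call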

CHD6 [SID315460227] | TNF reporter robust z-score = -0.51; Outcome = inactive
CHD6 [SID315460227] | TNF reporter robust z-score = 1.13; Outcome = inactive
CHD6 [SID315460227] | TNF reporter robust z-score = 0.76; Outcome = inactive
CHD6 [SID315460227] | TNF reporter robust z-score = 1.82; Outcome = inactive
MYCBP [SID315455768] | TNF reporter robust z-score = 0.74; Outcome = inactive
MYCBP [SID315455768] | TNF reporter robust z-score = 0.91; Outcome = inactive
MYCBP [SID315455768] | TNF reporter robust z-score = 0.38; Outcome = inactive
MYCBP [SID315455768] | TNF reporter robust z-score = 0.78; Outcome = inactive
TRIM33 [SID315456795] | TNF reporter robust z-score = -0.14; Outcome = inactive
TRIM33 [SID315456795] | TNF reporter robust z-score = 0.74; Outcome = inactive
TRIM33 [SID315456795] | TNF reporter robust z-score = 0.4; Outcome = inactive
TRIM33 [SID315456795] | TNF reporter robust z-score = -0.34; Outcome = inactive
TRMT10B [SID315462652] | Outcome = inactive
TRMT10B [SID315462652] | TNF reporter robust z-score = -0.85; Outcome = inactive
TRMT10B [SID315462652] | TNF reporter robust z-score = -0.84; Outcome = inactive
TRMT10B [SID315462652] | TNF reporter robust z-score = -0.62; Outcome = inactive
TRMT10B [SID315462652] | TNF reporter robust z-score = -0.4; Outcome = inactive
TCL6 [SID315455873] | TNF reporter robust z-score = -1.21; Outcome = inactive
TCL6 [SID315455873] | TNF reporter robust z-score = -0.24; Outcome = inactive
TCL6 [SID315455873] | TNF reporter robust z-score = -0.72; Outcome = inactive
TCL6 [SID315455873] | TNF reporter robust z-score = -1.1; Outcome = inactive
SYCP2L [SID315463313] | TNF reporter robust z-score = -0.59; Outcome = inactive
SYCP2L [SID315463313] | TNF reporter robust z-score = -0.02; Outcome = inactive
SYCP2L [SID315463313] | TNF reporter robust z-score = 0.05; Outcome = inactive
SYCP2L [SID315463313] | TNF reporter robust z-score = 0.4; Outcome = inactive
APAF1 [SID315447333] | TNF reporter robust z-score = 0.23; Outcome = inactive
APAF1 [SID315447333] | TNF reporter robust z-score = 0.71; Outcome = inactive
APAF1 [SID315447333] | TNF reporter robust z-score = -0.42; Outcome = inactive
APAF1 [SID315447333] | TNF reporter robust z-score = -0.38; Outcome = inactive
CRY2 [SID315448100] | TNF reporter robust z-score = -1.7; Outcome = active
CRY2 [SID315448100] | TNF reporter robust z-score = 0.49; Outcome = inactive
CRY2 [SID315448100] | TNF reporter robust z-score = 0.57; Outcome = inactive
CRY2 [SID315448100] | TNF reporter robust z-score = -0.33; Outcome = inactive

Entries listed above called active (1):
CRY2 [SID315448100] | TNF reporter robust z-score = -1.7; Outcome = active
